For one substance, binding results are on record in paper PMC6579765.

Sequences of proteins named here, by UniProt entry; tags and fusion partners are left off.
UniProt P63158: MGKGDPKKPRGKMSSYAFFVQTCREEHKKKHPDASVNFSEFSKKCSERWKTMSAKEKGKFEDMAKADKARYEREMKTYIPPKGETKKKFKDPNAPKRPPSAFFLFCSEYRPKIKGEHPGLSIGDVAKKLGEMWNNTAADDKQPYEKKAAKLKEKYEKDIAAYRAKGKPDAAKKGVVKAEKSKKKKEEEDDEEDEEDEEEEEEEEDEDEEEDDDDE

These are yes or no findings as the source states them, for the method shown. Binding seen in cells or lysates may run through a third protein. Some entries that bind do so weakly or less than the wild type.

Test [1] deals with T1, Toll-like receptor 9 (mouse (endogenous in heart tissue)) (UniProt Q9EQU3).
T1 sequence: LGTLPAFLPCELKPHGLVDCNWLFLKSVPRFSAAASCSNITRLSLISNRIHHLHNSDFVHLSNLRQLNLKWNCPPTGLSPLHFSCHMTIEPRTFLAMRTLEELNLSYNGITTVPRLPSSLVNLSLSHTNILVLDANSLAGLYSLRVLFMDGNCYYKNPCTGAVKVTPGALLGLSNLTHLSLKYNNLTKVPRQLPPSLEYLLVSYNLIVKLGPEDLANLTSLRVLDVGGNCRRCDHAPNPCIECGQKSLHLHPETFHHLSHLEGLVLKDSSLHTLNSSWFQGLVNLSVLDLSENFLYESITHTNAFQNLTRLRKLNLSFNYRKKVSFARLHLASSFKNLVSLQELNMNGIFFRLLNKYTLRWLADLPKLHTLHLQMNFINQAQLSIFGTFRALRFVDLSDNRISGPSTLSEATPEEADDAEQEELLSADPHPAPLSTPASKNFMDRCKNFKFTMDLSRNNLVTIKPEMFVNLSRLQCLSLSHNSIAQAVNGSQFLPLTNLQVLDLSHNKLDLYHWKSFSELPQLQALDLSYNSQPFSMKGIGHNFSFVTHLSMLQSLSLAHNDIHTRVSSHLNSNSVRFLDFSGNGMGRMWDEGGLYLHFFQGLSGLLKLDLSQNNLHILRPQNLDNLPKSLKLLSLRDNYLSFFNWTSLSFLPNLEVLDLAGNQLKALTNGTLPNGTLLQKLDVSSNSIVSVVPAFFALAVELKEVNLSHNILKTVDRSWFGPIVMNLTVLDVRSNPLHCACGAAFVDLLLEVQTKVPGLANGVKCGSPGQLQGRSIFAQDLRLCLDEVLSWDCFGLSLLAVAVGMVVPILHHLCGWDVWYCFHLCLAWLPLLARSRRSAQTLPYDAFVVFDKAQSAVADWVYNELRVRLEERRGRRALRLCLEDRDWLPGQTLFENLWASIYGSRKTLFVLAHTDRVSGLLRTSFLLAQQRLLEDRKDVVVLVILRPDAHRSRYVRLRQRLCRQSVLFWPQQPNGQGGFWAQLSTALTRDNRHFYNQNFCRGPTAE
As to the kind of experiment: co-IP; heart tissue lysates of WT MI mice; IP with anti-TLR9 (sc-25468) or IgG control on Protein A/G magnetic beads, 4 °C overnight, five washes with lysis buffer; blot for HMGB1.

Test [2] has as its target T1, Toll-like receptor 9 (mouse (endogenous in heart tissue)). Briefly: co-IP; heart tissue lysates of WT sham-operated mice; IP with anti-TLR9 (sc-25468) or IgG control on Protein A/G magnetic beads, 4 °C overnight, five washes with lysis buffer; blot for HMGB1.

In the case of “High Mobility Group Box 1 (from UniProt P63158 1-215)”, the binding entry in test [1] is reported as “binds”; in test [2], “no binding (condition: sham-operated WT mice (no MI))”.
